{"source": "patent US9623012B2", "about": "“Formulation comprising benzothiazolone compound” (priority 2013, dated 2017)", "tested_on": "Male Wistar Han IGS rats", "format": "in vivo", "conditions": "rat, s.c. minipump 4 weeks; formoterol 0.003-0.03, Compound A 0.01-0.1 mg/kg/day"}
{"compound": "COc1ccc(CC(C)NCC(O)c2ccc(O)c(NC=O)c2)cc1", "note": "(stereo not shown) [Formoterol, reference compound]", "values": [{"measurement": "skeletal muscle mass and heart mass increase (FIG. 1)", "result": "induces both skeletal muscle hypertrophy and heart mass increase to the same extent"}]}
